Reference: US20240342214A1 (MEDIZINISCHE HOCHSCHULE HANNOVER, published 2024)
No constants are given. Whether binding was seen depends on the method and setting. Some binding calls cover weakened binding; strength is not graded here.

T1: human ENTPD3 (Ectonucleoside triphosphate diphosphohydrolase 3) expressed on cells (human) (UniProt O75355)
T1 sequence: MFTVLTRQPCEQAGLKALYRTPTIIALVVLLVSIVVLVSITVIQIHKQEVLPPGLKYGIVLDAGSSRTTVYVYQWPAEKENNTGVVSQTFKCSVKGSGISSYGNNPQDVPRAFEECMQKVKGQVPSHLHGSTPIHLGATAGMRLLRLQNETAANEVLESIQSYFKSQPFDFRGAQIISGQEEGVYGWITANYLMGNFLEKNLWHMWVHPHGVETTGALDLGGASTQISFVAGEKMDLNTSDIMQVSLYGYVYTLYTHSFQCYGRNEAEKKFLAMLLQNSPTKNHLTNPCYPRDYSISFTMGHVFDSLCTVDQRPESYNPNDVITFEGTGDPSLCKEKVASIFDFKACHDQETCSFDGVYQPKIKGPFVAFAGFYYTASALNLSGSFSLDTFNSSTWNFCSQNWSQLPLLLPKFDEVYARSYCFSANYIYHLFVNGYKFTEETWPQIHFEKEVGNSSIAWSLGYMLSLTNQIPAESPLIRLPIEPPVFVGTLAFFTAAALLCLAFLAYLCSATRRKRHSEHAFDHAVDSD


Target: T1, human ENTPD3 (Ectonucleoside triphosphate diphosphohydrolase 3) expressed on cells (human)
Test: flow cytometry; soluble scFv on transfected HEK293T cells; anti-His PE

binding | Binder
binds | hg012-A8 scFv (scFv, Soluble scFv made in E. coli, with Myc tag and His tag) scFv: QVTLKESGGGLVQPGRSLRLSCAASGFTFDDYAMHWVRQAPGKGLEWVSGISWNSGSIGYADSVKGRFTISRDNAKNSLYLQMNSLRAEDTALYYCAKGANYDILTGYRKDNWFDPWGQGTLVTVSSGSASAPKLEEGEFSEARVLPVLTQPPSASGTPGQKVTISCSGSSSNIGSNYVFWYEQLPGAAPKLLMYSSNQRPSGVPDRFSGSKSGTSASLAISGLRSEDEADYYCAAWDDSLSGWVFGGGTKLTVLGQPKAAPSVTLFPPSSAAAGSEQKLISEEDLSHHHHHH
binds | hg012-F10 scFv (scFv, Soluble scFv made in E. coli, with Myc tag and His tag) scFv: QMQLVQSGGGVVQPGRSLRLSCAASGFTFSSYGMHWVRQAPGKGLERVAVISYDGSNKYYADSVKGRFTISRDNSKNTLYLQMNSLRAEDTALYYCAKDHHPYGSSDSFDYWGQGTLVTVSSGSASAPKLEEGEFSEARVQAVVTQEPSLTVSPGGTVTLTCGSSTGAVTRGHYPYWLQQKPGQAPRTLIYDTVKKHSWTPARFSGSLVGGKAALTLSGAQPEDEADYYCLLSFIDTRYPARYVFGTGTKVTVLGQPKANPTVTLFPPSSAAAGSEQKLISEEDLSHHHHHH
